Experimental findings from article PMC9143004, “Antioxidant Properties and Aldehyde Reactivity of PD-L1 Targeted Aryl-Pyrazolone Anticancer Agents” (Molecules, 2022) are described below.

Some entries repeat one wording, which the source may state once for all of them.

Data set [1] in a line: Adduct formation with 5-formyluracil, HRMS analysis. Conditions: equimolar 5fU, 180 min, 37 °C, methanol:ammonium formate buffer 5 mM pH 4.5 (40:60); 0.5 mM (compound 4 at 0.1 mM).
Data set [2] in a line: DMPO spin-trapping EPR assay under Fenton conditions in methanol. Conditions: ratio of kr to ka (DMPO-•OH) = 4.3 × 10^9 M^−1 s^−1. As to the method: In this case, we monitor the formation of an oxygen centered radical generated in the presence of the spin trapping agent DMPO under Fenton conditions (hydrogen peroxide plus ferrous ions). For practical reasons (compound solubility), experiments were carried out using methanol as a solvent and therefore, the methoxy radical is monitored. A typical six-line EPR signal is recorded, corresponding to the DMPO/^•OCH3 radical, with the characteristic hyperfine coupling constants aN = 13.9 G and aH = 8.3 G. Here again, we can measure the decay of the EPR signal in the presence of the different antioxidant compounds and compare their relative capacity to reduce the signal. Typical concentration-dependent response curves are presented in Figure 3a for compounds EDA, 2 and 4. All six compounds can induce a decrease of the EPR signal but with various degrees of efficacy (Figure 3b). Here again, the results were quantified through the measure of the area of the EPR signal as a function of the compound concentration, to allow the calculation of the reaction constants for each compound. […] Proper dose-response curves were constructed and fitted to determine the reaction rate constant (kr) for each compound, as shown in Figure 3c and the kr values are collated in Table 2.
CW-EPR experiments were performed with an X-band Bruker Elexsys E500 spectrometer (Bruker BioSpin GmbH, Rheinstetten, Germany) operating at 9.86 GHz. CW spectra were recorded at room temperature with a microwave power of 5.024–10.02 mW and a modulation amplitude of 1–2 G that assumes non-saturation conditions. The antioxidant activity was monitored using DPPH (1,1-diphenyl-2-picrylhydrazyl) at a final concentration of 100 µM as free radical scavenging molecule and DMPO (5,5-dimethyl-1-pyrroline N-oxide) as spin trap agent for the spin trapping experiments. The DMPO solution was freshly distillated prior to use at a final concentration of 1 mM or 2 mM. The solution mixture was filled into a glass capillary of 50 μL, which was in turn, placed in 4 mm quartz EPR tubes prior to analysis.
The percent inhibition of DPPH was calculated according to the following equation: I (%) = ((I0 − I)/I0) ∗ 100 where I0 is the area of the EPR spectrum of DPPH (control sample), and I is the area of the EPR spectrum of DPPH with antioxidant compound. The rate constant for the reaction of antioxidant compounds with ^•OCH3 is expressed by the following equation: 1/Ra = 1/Rf + (kr [AH]/(ka [DMPO] × Rf). Rf, and Ra indicate EPR signal area (double integration of EPR signal) of ^•OCH3, DMPO/^•OCH3, respectively. ka and [DMPO] are constants, and a plot of 1/Ra vs. [AH] (concentration of antioxidant compound) gives a straight line with 1/Rf as an intercept and kr/(ka[DMPO] Rf) as the slope. In these circumstances, the rate constant for the reaction of ^•OCH3 with antioxidant compounds (kr) can be expressed by the following equation: kr = (ka [DMPO] × slope)/interception.

A short description of data set [3]: Kinetic of bis-adduct formation with 5fU, HPLC-DAD.
Where [4] appears, read: 0.5 mM compound and 5fU, 37 °C, pH 4.5, bis-adduct at 254 nm.

On to `O=C1CC(C23CC4CC(CC(C4)C2)C3)=NN1c1ccccc1Cl` [Compound 5], for which, in data set [1], the “Adduct formation with 5fU (HRMS)” value is “no adduct formation”. Besides, the DMPO kr/ka in data set [2] is on record as 29.
`COc1ccccc1C1=NN(c2ccc(Cl)cc2Cl)C(=O)C1` [Compound 3]: in data set [1], the “Adduct formation with 5fU (HRMS)” value is “mono- and bis-adducts were detected”.
Regarding `O=C1CC(c2ccc(Cl)cc2)=NN1c1ccc(Cl)cc1Cl` [Compound 4], the “Adduct formation with 5fU (HRMS)” value in data set [1] was “mono- and bis-adducts were detected”. In addition, the DMPO kr/ka in data set [2] was found to be 24. Besides, the “Reactivity coefficient toward 5fU (ratio of reaction rate, compound/EDA)” value in data set [3] (compared with EDA at 0.1 mM) was determined as 0.33.
As for `CC1=NN(c2ccccn2)C(=O)C1` [Compound 1], in data set [1], the “Adduct formation with 5fU (HRMS)” value is “mono- and bis-adducts were detected”. Moreover, the DMPO kr/ka in data set [2] is recorded as 30. Besides, in data set [3] (setting [4]), the “Reactivity coefficient toward 5fU (ratio of reaction rate, compound/EDA)” value was 0.2.
Turning to `CC1=NN(c2ccccc2)C(=O)C1` [EDA, 1-phenyl-3-methyl-5-pyrazolone, reference compound], in data set [1], the “Adduct formation with 5fU (HRMS)” value was “forms mono- and bis-adducts”. For the same molecule, in data set [2], the DMPO kr/ka was determined as 60. Moreover, in data set [3] (setting [4]), the “Reactivity coefficient toward 5fU (ratio of reaction rate, compound/EDA)” value was 1.
For the molecule `CC1=NN(c2ccc(Cl)cc2Cl)C(=O)C1` [Compound 2], the “Adduct formation with 5fU (HRMS)” value in data set [1] is “mono- and bis-adducts were detected”. In data set [2], the DMPO kr/ka turned out to be 45. In data set [3] (setting [4]), the “Reactivity coefficient toward 5fU (ratio of reaction rate, compound/EDA)” value was found to be 0.2.
